Data taken from paper PMC11463362.
These are yes or no findings as the source states them, for the method shown. Binding seen in cells or lysates may run through a third protein. A yes stands for co-enrichment or nearness to the bait. Other partners may have been found.

The chains behind the UniProt entries cited, without tags or fusion partners.
UniProt Q6BDS2: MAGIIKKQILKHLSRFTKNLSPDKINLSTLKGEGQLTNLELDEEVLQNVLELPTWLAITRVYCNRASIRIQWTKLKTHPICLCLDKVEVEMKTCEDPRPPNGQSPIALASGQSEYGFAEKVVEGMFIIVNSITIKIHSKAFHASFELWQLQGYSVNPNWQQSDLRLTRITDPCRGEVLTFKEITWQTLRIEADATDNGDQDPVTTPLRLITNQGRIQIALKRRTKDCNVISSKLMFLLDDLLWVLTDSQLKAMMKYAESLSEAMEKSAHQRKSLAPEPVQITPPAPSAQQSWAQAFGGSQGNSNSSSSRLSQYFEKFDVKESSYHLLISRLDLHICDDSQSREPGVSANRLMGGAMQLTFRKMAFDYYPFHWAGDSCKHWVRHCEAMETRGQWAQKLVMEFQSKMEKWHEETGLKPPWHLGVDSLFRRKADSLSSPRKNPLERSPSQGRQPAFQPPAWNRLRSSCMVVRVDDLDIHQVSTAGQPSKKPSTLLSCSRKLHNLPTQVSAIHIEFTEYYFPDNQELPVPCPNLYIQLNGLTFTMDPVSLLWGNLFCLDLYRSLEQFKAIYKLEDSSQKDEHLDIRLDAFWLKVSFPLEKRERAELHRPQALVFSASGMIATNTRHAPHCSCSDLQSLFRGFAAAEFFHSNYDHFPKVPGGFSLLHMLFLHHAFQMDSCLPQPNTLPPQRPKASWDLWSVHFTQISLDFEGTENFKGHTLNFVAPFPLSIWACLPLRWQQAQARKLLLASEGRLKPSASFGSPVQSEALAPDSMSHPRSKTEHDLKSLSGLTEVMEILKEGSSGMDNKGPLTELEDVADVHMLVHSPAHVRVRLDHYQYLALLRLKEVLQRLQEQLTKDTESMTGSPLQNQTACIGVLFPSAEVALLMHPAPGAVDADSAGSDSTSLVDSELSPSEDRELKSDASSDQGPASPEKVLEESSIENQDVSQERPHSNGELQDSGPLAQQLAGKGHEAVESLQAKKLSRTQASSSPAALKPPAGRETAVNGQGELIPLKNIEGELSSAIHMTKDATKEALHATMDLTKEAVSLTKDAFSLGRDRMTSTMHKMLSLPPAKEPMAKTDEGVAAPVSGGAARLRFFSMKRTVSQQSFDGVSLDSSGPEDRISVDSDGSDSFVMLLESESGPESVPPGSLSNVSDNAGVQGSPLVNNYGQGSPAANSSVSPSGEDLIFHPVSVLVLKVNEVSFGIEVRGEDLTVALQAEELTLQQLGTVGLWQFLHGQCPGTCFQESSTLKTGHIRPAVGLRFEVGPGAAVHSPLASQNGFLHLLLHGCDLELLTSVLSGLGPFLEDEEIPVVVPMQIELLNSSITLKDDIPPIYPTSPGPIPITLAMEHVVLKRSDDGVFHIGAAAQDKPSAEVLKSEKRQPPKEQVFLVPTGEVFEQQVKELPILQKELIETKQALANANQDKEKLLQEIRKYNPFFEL
UniProt O95166: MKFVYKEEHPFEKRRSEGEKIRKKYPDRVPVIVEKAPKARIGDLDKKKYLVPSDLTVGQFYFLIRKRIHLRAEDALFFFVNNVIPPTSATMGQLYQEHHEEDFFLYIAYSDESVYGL

B1: Rab27B (protein, UniProt O00194 1-218)
chain: MTDGDYDYLIKLLALGDSGVGKTTFLYRYTDNKFNPKFITTVGIDFREKRVVYNAQGPNGSSGKAFKVHLQLWDTAGQERFRSLTTAFFRDAMGFLLMFDLTSQQSFLNVRNWMSQLQANAYCENPDIVLIGNKADLPDQREVNERQARELADKYGIPYFETSAATGQNVEKAVETLLDLIMKRMEQCVEKTQIPDTVNGGNSGNLDGEKPPEKKCIC
B2: melanophilin (MLPH) (protein, UniProt Q9BV36 1-600)
chain: MGKKLDLSKLTDEEAQHVLEVVQRDFDLRRKEEERLEALKGKIKKESSKRELLSDTAHLNETHCARCLQPYQLLVNSKRQCLECGLFTCKSCGRVHPEEQGWICDPCHLARVVKIGSLEWYYEHVKARFKRFGSAKVIRSLHGRLQGGAGPELISEERSGDSDQTDEDGEPGSEAQAQAQPFGSKKKRLLSVHDFDFEGDSDDSTQPQGHSLHLSSVPEARDSPQSLTDESCSEKAAPHKAEGLEEADTGASGCHSHPEEQPTSISPSRHGALAELCPPGGSHRMALGTAAALGSNVIRNEQLPLQYLADVDTSDEESIRAHVMASHHSKRRGRASSESQIFELNKHISAVECLLTYLENTVVPPLAKGLGAGVRTEADVEEEALRRKLEELTSNVSDQETSSEEEEAKDEKAEPNRDKSVGPLPQADPEVGTAAHQTNRQEKSPQDPGDPVQYNRTTDEELSELEDRVAVTASEVQQAESEVSDIESRIAALRAAGLTVKPSGKPRRKSNLPIFLPRVAGKLGKRPEDPNADPSSEAKAMAVPYLLRRKFSNSLKSQGKDDDSFDRKSVYRGSLTQRNPNARKGMASHTFAKPVVAHQS

biological target: bridge-like lipid transfer protein 3A (BLTP3A), endogenously tagged with V5 (BLTP3A^V5) (human (endogenous in A549)) (UniProt Q6BDS2); assay: affinity purification with mass spectrometry; anti-V5 magnetic resin (ChromoTek) on lysate of A549 cells with endogenously V5-tagged BLTP3A; 50 mM Tris pH 7.6, 150 mM NaCl, 1% Triton X-100, 4°C, 2 hrs; unedited A549 cells as control; n=3

binding | Molecule
binds | GABARAP (from UniProt O95166 1-117)
binds | B1
binds | B2
